Reference: patent US9193755B1, “TFEB variants and uses thereof” (Fondazione Telethon, priority 2011, dated 2015)

System: HeLa cells
Assay: Subcellular localization and mobility of mutated TFEB-3xFlag in HeLa cells
Assay type: cell-based, human
Settings: normal versus starved media, compared to WT TFEB
Experimental: Cells were transiently transfected with DNA plasmids pRK5-mycPAT1, pCEP4-TFEB-his, pC1G2-TFEB, and p3 x FLAG-CMVTFEB using lipofectamine2000 or LTX (Invitrogen) according to the protocol from manufacturer. Site-direct mutagenesis was performed according to the manufacturer instructions (Stratagene) verifying the correct mutagenesis by sequencing.
Cells were seeded at 50% of confluence in 6 well dishes and serum starved overnight (ON). Normal medium was added the following day either in presence of DMSO or kinase inhibitors. Subcellular fractionation was carried out as previously reported. Briefly, cells were lysed in 0.5 Triton X-100 lysis buffer (50 mM Tris-HCl, 0.5% triton, 137.5 mM NaCl, 10% glycerol, 5 mM EDTA supplemented with fresh protease and phosphatase inhibitors. Supernatant represented cytosolic fraction while nuclear pellet was washed twice and lysed in 0.5 Triton X-100 buffer 0.5% SDS and sonicated.

Molecule	molecular weight migration / shift of TFEB mutant
TFEB(S142A): TFEB variant with serine 142 mutated to alanine (protein, UniProt P19484 1-476, looked up, variant S142A, 3xFlag tag, TFEB variant with serine 142 mutated to alanine) Transcription factor EB: MASRIGLRMQLMREQAQQEEQRERMQQQAVMHYMQQQQQQQQQQLGGPPTPAINTPVHFQSPPPVPGEVLKVQSYLENPTSYHLQQSQHQKVREYLSETYGNKFAAHISPAQGSPKPPPAASPGVRAGHVLSSSAGNSAPNAPMAMLHIGSNPERELDDVIDNIMRLDDVLGYINPEMQMPNTLPLSSSHLNVYSSDPQVTASLVGVTSSSCPADLTQKRELTDAESRALAKERQKKDNHNLIERRRRFNINDRIKELGMLIPKANDLDVRWNKGTILKASVDYIRRMQKDLQKSRELENHSRRLEMTNKQLWLRIQELEMQARVHGLPTTSPSGMNMAELAQQVVKQELPSEEGPGEALMLGAEVPDPEPLPALPPQAPLPLPTQPPSPFHHLDFSHSLSFGGREDEGPPGYPEPLAPGHGSPFPSLSKKDLDLMLLDDSLLPLASDPLLSTMSPEASKASSRRSSFSMEEGDVL	migrates at lower molecular weight in normal but not in starved media
TFEB S142D: phospho-mimetic mutant of TFEB (protein, UniProt P19484 1-476, looked up, variant S142D, 3xFlag tag) Transcription factor EB: MASRIGLRMQLMREQAQQEEQRERMQQQAVMHYMQQQQQQQQQQLGGPPTPAINTPVHFQSPPPVPGEVLKVQSYLENPTSYHLQQSQHQKVREYLSETYGNKFAAHISPAQGSPKPPPAASPGVRAGHVLSSSAGNSAPNDPMAMLHIGSNPERELDDVIDNIMRLDDVLGYINPEMQMPNTLPLSSSHLNVYSSDPQVTASLVGVTSSSCPADLTQKRELTDAESRALAKERQKKDNHNLIERRRRFNINDRIKELGMLIPKANDLDVRWNKGTILKASVDYIRRMQKDLQKSRELENHSRRLEMTNKQLWLRIQELEMQARVHGLPTTSPSGMNMAELAQQVVKQELPSEEGPGEALMLGAEVPDPEPLPALPPQAPLPLPTQPPSPFHHLDFSHSLSFGGREDEGPPGYPEPLAPGHGSPFPSLSKKDLDLMLLDDSLLPLASDPLLSTMSPEASKASSRRSSFSMEEGDVL	reduced shift during starvation
